SMILES strings stand for the structures.

The data set concerns IgG1 monoclonal antibody. As to the kind of experiment: Antioxidant incubation screening: color intensity of antibody composition after incubation in Media 1/Media 2 mixture. As to conditions: 1X test concentration in Media 1 + Media 2 mixture, 2 g/L IgG1 mAb, 5 days 37° C.; protein A pool concentrated to 150 g/L; normalized to positive control. On the procedure:
For antioxidant screening, a total volume of 40 ml media was prepared by mixing 1 part basal Media 1 and 0.3 part feed Media 2 to mirror a representative ratio of media used in cell culture conditions (Table 5). […] The samples were incubated at 37° C. with shaking at 250 rpm for a five day incubation period.
After incubation, the monoclonal antibody was purified using protein A affinity chromatography. The pool was concentrated to 150 g/L using Amicon Centricon centrifugal filter devices (Millipore Corporation, Billerica, Mass.). Color intensity of the concentrated antibody composition was measured in the concentrated protein A pool using an assay wherein higher numerical values indicate higher color intensity and lower numerical values indicate lower color intensity. The numerical results were normalized to the positive control, where the value for the positive control was set at 0% change in color intensity.
As for `Cn1cncc1C[C@H](NC(=O)CCN)C(=O)O.O=[N+]([O-])O` [anserine, (2S)-2-(3-aminopropanamido)-3-(1-methyl-1H-imidazol-5-yl)propanoic acid; nitric acid], the “effect on color of the antibody composition” value was “reduce the color”. For `COc1ccc(O)c(C(C)(C)C)c1` [butylated hydroxyanisole, 2-tert-butyl-4-methoxyphenol] the value was “reduce the color”; for `NCCC(=O)N[C@@H](Cc1cnc[nH]1)C(=O)O` [carnosine, (2S)-2-(3-aminopropanamido)-3-(1H-imidazol-5-yl)propanoic acid], “reduce the color”; for `NCCS` [cysteamine, 2-aminoethane-1-thiol], “increase the color”. For `O=C([O-])c1cc(O)ccc1O.[Na+]` [gentisic acid, sodium 2,5-dihydroxybenzoate] the value was “increase the color”; for `C[C@]12CCC(=O)C=C1CC[C@@H]1[C@@H]2[C@@H](O)C[C@@]2(C)[C@H]1CC[C@]2(O)C(=O)CO` [hydrocortisone, (1S,2R,10S,11S,14R,15S,17S)-14,17-dihydroxy-14-(2-hydroxyacetyl)-2,15-dimethyltetracyclo[8.7.0.0^{2,7}.0^{11,15}]heptadec-6-en-5-one, reference compound], “increase the color”; for `O=C(O)CCCC[C@@H]1CCSS1` [lipoic acid, 5-[(3R)-1,2-dithiolan-3-yl]pentanoic acid], “reduce the color”. The result for `CC(S)C(=O)NCC(=O)O` (stereo not drawn) [mercaptopropionyl glycine, 2-(2-sulfanylpropanamido)acetic acid] reads “increase the color”; that for `C[C@@H]1O[C@@H](Oc2c(-c3ccc(O)c(O)c3)oc3cc(O)cc(O)c3c2=O)[C@H](O)[C@H](O)[C@H]1O` [quercitrin hydrate, 2-(3,4-dihydroxyphenyl)-5,7-dihydroxy-3-{[(2S,3R,4R,5R,6S)-3,4,5-trihydroxy-6-methyloxan-2-yl]oxy}-4H-chromen-4-one], “reduce the color”.

The values are drawn from patent publication US10676710B2, “Cell culture compositions with antioxidants and methods for polypeptide production” (Genentech, Inc., priority 2013, dated 2020).
